Laboratory results taken from paper PMC10765725.
Results are given in words; binding and its absence hold for the method and conditions named. Binding seen in cells or lysates may run through a third protein. Some binding calls cover weakened binding; strength is not graded here.

Sequences of proteins named here, by UniProt entry; tags and fusion partners are left off.
UniProt P56962: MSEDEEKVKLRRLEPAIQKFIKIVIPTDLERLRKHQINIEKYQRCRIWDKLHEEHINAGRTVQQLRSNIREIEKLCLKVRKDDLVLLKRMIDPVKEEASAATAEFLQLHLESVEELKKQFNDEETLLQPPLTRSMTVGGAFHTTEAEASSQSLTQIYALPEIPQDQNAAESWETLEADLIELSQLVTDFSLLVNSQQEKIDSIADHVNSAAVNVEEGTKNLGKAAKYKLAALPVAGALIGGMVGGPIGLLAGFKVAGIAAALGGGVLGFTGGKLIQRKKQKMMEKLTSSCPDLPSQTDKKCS
UniProt P51150: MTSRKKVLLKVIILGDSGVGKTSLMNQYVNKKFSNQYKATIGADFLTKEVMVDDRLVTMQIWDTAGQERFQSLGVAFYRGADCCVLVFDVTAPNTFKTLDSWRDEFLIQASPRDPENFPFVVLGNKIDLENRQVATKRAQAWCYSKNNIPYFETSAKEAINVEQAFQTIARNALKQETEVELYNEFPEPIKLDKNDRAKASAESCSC

Experiments:
Flag-tagged Stx17 = Flag-tagged Stx17 (UniProt P56962); assay: co-IP; immunoprecipitation of Flag-Stx17 from HEK293T cell lysate (Nonidet P-40 lysis buffer, magnetic beads), blots for endogenous LC3-II/I and CCZ1; cells under Meth treatment or starvation
[1] = target: Rab7 (mouse hippocampus) (mouse (endogenous in hippocampus)) (UniProt P51150); assay: co-IP; anti-Rab7 antibody on magnetic beads, incubated 4 h at 4 °C with mouse hippocampus lysate (Nonidet P-40 lysis buffer), called immunoisolation of late endosomes; blots for CCZ1 and Stx17; mice of the control, Meth and Meth + AAV-Stx17 groups

B1: endogenous CCZ1 (HEK293T) (protein, UniProt P86791 1-482)
chain: MAAAAAGAGSGPWAAQEKQFPPALLSFFIYNPRFGPREGQEENKILFYHPNEVEKNEKIRNVGLCEAIVQFTRTFSPSKPAKSLHTQKNRQFFNEPEENFWMVMVVRNPIIEKQSKDGKPVIEYQEEELLDKVYSSVLRQCYSMYKLFNGTFLKAMEDGGVKLLKERLEKFFHRYLQTLHLQSCDLLDIFGGISFFPLDKMTYLKIQSFINRMEESLNIVKYTAFLYNDQLIWSGLEQDDMRILYKYLTTSLFPRHIEPELAGRDSPIRAEMPGNLQHYGRFLTGPLNLNDPDAKCRFPKIFVNTDDTYEELHLIVYKAMSAAVCFMIDASVHPTLDFCRRLDSIVGPQLTVLASDICEQFNINKRMSGSEKEPQFKFIYFNHMNLAEKSTVHMRKTPSVSLTSVHPDLMKILGDINSDFTRVDEDEEIIVKAMSDYWVVGKKSDRRELYVILNQKNANLIEVNEEVKKLCATQFNNIFFLD
In the case of B1, the binding (Flag-tagged Stx17) is reported as “binds”.

B2: CCZ1 (mouse hippocampus) (protein, UniProt Q8C1Y8 1-480)
chain: MAAAAAGPGAWAAQEKQFPPALLSFFIYNPRFGPREGEEENKILFYHPNEVEKNEKIRNVGLCEAIVQFTRTFSPSKPAKSLHTQKNRQFFNEPEENFWMVMVVRNPIIEKQSKDGKAVVEYQEEELLDKVYSSVLQQCYSMYKLFNGTFLKAMEDGGVKLLKERLEKFFHRYLQTLHLQSCDLLDIFGGISFFPLDKMTYLKIQSFINRMEESLSVVKYTAFLYNDQLIWSGLEQDDMRILYKYLTTSLFPRHIEPELAGRDSPVRAEMPGNLQHYGRFLTGPLNLNDPEAKCRFPKIFVNTDDTYEELHLIVYKAMSAAVCFMIDASTPLTLDFCRRLDSIVGPQLTVLASDICEQFNINKRISGSEKEPQFKFIYFNHMNLAEKSTIHMRKTPSVSLTSVHPDLMKILGDINSDFTRADEDEEIIVKAMSDYWVVGKKSDQRELYVILSQKNANLIEVNEEVKKLCATQFNNIFFLD
With B2 the binding [1] was “binds”.

B3: Stx17 (mouse hippocampus) (protein, UniProt Q9D0I4 1-301)
chain: MSEDEEKVKLRRLEPAIQKFTKIVIPTDLERLRKHQINIEKYQRCRIWDKLHEEHINAGRTVQQLRSNIREMEKLCLKVHKDDLVLLKRMIDPVKEAAATATAEFLQLHLESVEELKKQVNDEELLQPSLTRSTTVDGVLHTGEAEAASQSLTQIYALPEIPQDQNAAESWETLEADLIELSHLVTDMSLLVSSQQEKIDSIADHVNSAAVNVEEGTKNLQKAAKYKLAALPVAGALIGGVVGGPIGLLAGFKVAGIAAALGGGVLGFTGGKLIQRRKQKMMEKLTSSCPDLPSQSDKKRS
In the case of B3, the binding [1] is reported as “binds”.
